The list shows only some results of the screen, not a fair sample: it gathers tests that were run many times, whatever their T/C, doses with no T/C, and many T/C values between a quarter and a half above the control. Other doses and runs of a compound stand elsewhere. T/C: endpoint of the treated group in % of that of the vehicle group. Some doses have a count of surviving animals in place of a T/C: the source holds a T/C of zero for them, seemingly a mark for toxic or unscored doses. Some doses without a T/C left all or most animals alive at the check, yet need not have been tolerated: the source hardly ever lists a survival T/C far under the control, and the zero likely stands for such cases as well. Survivors were counted at the toxicity check, usually on the fifth day, unless a day is given; later deaths do not show. Schedules are NCI's codes, taken here to give the interval after Q, in days (D) or hours (H), and the number of doses after X. Some doses were run more than once; the results are listed from low to high. Counts like (3×) give the number of equal values in this list. For survival time, this PubChem deposit counts one and a half times the control or more as active, and values a quarter to a half above the control carry no call in these data; other NCI protocols may use other cut-offs. Some T/C values carry the count of animals alive at the toxicity check (mostly the fifth day); where none is given, no animal had died by that day.
System: BDF1 mice, B16 melanoma ip, median survival T/C
Experiment: NCI In Vivo Anticancer Drug Screen. Data for tumor model B16 Melanoma (intraperitoneal) in B6D2F1 (BDF1) mice
Conditions: T/C endpoint: median survival time, higher T/C = longer survival
Procedure, shortened: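 Compounds were tested in mice carrying transplantable tumors. Survival or tumor size was recorded, and each value is the treated-group measurement (T) divided by that of the vehicle-treated control group (C).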

[1] = dose: 2.0 mg/kg/injection, schedule: Q01DX009 (ip), vehicle: saline
[2] = dose: 5.0 mg/kg/injection, schedule: Q01DX001 (ip), vehicle: water

Question: Which results are given for CC[C@]1(O)C[C@H]2CN(CCc3c([nH]c4ccccc34)[C@@](C(=O)OC)(c3cc4c(cc3OC)N(C=O)[C@H]3[C@@](O)(C(=O)OC)[C@H](OC(C)=O)[C@]5(CC)C=CCN6CC[C@]43[C@@H]65)C2)C1?
Answer: T/C (dose: 0.84 mg/kg/injection, schedule: Q01DX005 (ip), vehicle: saline): 128 % of control; T/C (dose: 0.9 mg/kg/injection, schedule: Q04DX003 (ip), vehicle: saline): 132 % of control; T/C (dose: 1.0 mg/kg/injection, schedule: Q01DX009 (ip), vehicle: saline, evaluated on day 45): 102 and 128 % of control; T/C (dose: 1.0 mg/kg/injection, schedule: Q01DX009 (ip), vehicle: saline, evaluated on day 60): 86, 88, 89, 90 % of control; survivor count (dose: 1.0 mg/kg/injection, schedule: Q01DX009 (ip), vehicle: saline): 2 of 6, 3 of 6, 5 of 6 (2×), 9 of 10, 6 of 6 (2×); survivor count (dose: 1.0 mg/kg/injection, schedule: Q01DX009 (ip), vehicle: water): 9 of 10 and 10 of 10 (2×); T/C (dose: 1.0 mg/kg/injection, schedule: Q04DX003 (ip), vehicle: saline, evaluated on day 5): 169 % of control; T/C (dose: 1.0 mg/kg/injection, schedule: Q04DX003 (ip), vehicle: saline, evaluated on day 60): 109, 132, 176, 179 % of control; T/C (dose: 1.08 mg/kg/injection, schedule: Q01DX001 (ip), vehicle: water): 125 % of control; T/C (dose: 1.08 mg/kg/injection, schedule: Q04DX003 (ip), vehicle: water): 139 and 141 % of control; survivor count (dose: 1.6 mg/kg/injection, schedule: Q01DX009 (ip), vehicle: saline): 3 of 6 and 6 of 6; survivor count (dose: 1.6 mg/kg/injection, schedule: Q04DX003 (ip), vehicle: water): 10 of 10; survivor count (dose: 1.67 mg/kg/injection, schedule: Q04DX003 (ip), vehicle: saline): 9 of 10; T/C (dose: 1.8 mg/kg/injection, schedule: Q04DX003 (ip), vehicle: water): 147 % of control; T/C (dose: 2.0 mg/kg/injection, schedule: Q01DX001 (ip), vehicle: saline): 129 % of control; T/C [1]: 89 and 110 % of control [5 of 6 alive]; survivor count [1]: 0 of 6, 1 of 6, 2 of 6 (2×), 3 of 6 (2×), 4 of 6, 7 of 10, 5 of 6 (2×), 10 of 10, 6 of 6 (2×), 7 of 7; survivor count (dose: 2.0 mg/kg/injection, schedule: Q04DX003 (ip), vehicle: saline): 10 of 10; survivor count (dose: 2.0 mg/kg/injection, schedule: Q04DX005 (ip), vehicle: saline): 10 of 10; survivor count (dose: 2.5 mg/kg/injection, schedule: Q04DX003 (ip), vehicle: saline): 0 of 5; survivor count (dose: 2.78 mg/kg/injection, schedule: Q04DX003 (ip), vehicle: saline): 10 of 10; T/C (dose: 3.0 mg/kg/injection, schedule: Q01DX001 (ip), vehicle: water): 127 and 130 % of control; survivor count (dose: 3.2 mg/kg/injection, schedule: Q01DX009 (ip), vehicle: saline): 2 of 6 and 3 of 6; survivor count (dose: 3.2 mg/kg/injection, schedule: Q04DX003 (ip), vehicle: water): 10 of 10; T/C (dose: 4.0 mg/kg/injection, schedule: Q01DX001 (ip), vehicle: saline): 131 % of control; T/C [2]: 131 % of control; survivor count [2]: 10 of 10; survivor count (dose: 6.4 mg/kg/injection, schedule: Q01DX009 (ip), vehicle: saline): 0 of 6 and 2 of 6; survivor count (dose: 8.0 mg/kg/injection, schedule: Q01DX001 (ip), vehicle: saline): 9 of 10; survivor count (dose: 12.8 mg/kg/injection, schedule: Q01DX009 (ip), vehicle: saline): 0 of 6 and 1 of 6; T/C (dose: 31.25 micrograms/kg/injection, schedule: Q01DX009 (ip), vehicle: water): 137 % of control; T/C (dose: 130.0 micrograms/kg/injection, schedule: Q01DX009 (ip), vehicle: water): 134 % of control; T/C (dose: 216.0 micrograms/kg/injection, schedule: Q01DX009 (ip), vehicle: water): 145 % of control; T/C (dose: 216.0 micrograms/kg/injection, schedule: Q04DX003 (ip), vehicle: saline): 126 % of control; T/C (dose: 233.0 micrograms/kg/injection, schedule: Q04DX003 (ip), vehicle: saline): 127 % of control; T/C (dose: 360.0 micrograms/kg/injection, schedule: Q01DX009 (ip), vehicle: water): 143 % of control; T/C (dose: 360.0 micrograms/kg/injection, schedule: Q04DX003 (ip), vehicle: saline): 126 and 134 % of control [9 of 10 alive]; survivor count (dose: 500.0 micrograms/kg/injection, schedule: Q01DX009 (ip), vehicle: water): 10 of 10; survivor count (dose: 600.0 micrograms/kg/injection, schedule: Q01DX009 (ip), vehicle: saline): 9 of 10; T/C (dose: 600.0 micrograms/kg/injection, schedule: Q01DX009 (ip), vehicle: water): 141 % of control; T/C (dose: 600.0 micrograms/kg/injection, schedule: Q04DX003 (ip), vehicle: saline): 130 % of control; survivor count (dose: 1000.0 micrograms/kg/injection, schedule: Q01DX009 (ip), vehicle: water): 9 of 10; T/C (dose: 1670.0 micrograms/kg/injection, schedule: Q04DX003 (ip), vehicle: saline): 137 % of control
